According to article PMC10774444, “BPG4 regulates chloroplast development and homeostasis by suppressing GLK transcription factors and involving light and brassinosteroid signaling”:

How the values were obtained:
[1] = target: T1, GLK1-GFP (Arabidopsis thaliana) (UniProt Q9SIV3); test: co-IP; extracts of 14-day-old Arabidopsis seedlings (35S:GLK1-GFP/glk1glk2 or 35S:GLK2-GFP, WT as control); GLK1/2-GFP immunoprecipitated with GFP-Trap A; blots with anti-GFP and anti-BPG4
T1 sequence: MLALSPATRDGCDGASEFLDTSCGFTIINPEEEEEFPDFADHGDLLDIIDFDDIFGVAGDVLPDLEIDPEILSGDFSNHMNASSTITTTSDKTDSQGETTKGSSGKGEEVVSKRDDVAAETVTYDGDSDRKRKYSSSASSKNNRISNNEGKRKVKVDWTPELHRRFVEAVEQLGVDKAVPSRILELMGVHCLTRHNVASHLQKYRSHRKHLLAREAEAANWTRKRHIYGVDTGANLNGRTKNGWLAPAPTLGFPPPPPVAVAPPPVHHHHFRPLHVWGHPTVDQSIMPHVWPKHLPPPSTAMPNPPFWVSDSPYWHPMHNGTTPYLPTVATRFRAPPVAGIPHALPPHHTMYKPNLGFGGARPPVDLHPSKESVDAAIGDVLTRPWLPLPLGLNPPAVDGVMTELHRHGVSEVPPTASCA

[2] = target: T2, GLK2-GFP (Arabidopsis thaliana) (UniProt Q9FFH0); test: as above
T2 sequence: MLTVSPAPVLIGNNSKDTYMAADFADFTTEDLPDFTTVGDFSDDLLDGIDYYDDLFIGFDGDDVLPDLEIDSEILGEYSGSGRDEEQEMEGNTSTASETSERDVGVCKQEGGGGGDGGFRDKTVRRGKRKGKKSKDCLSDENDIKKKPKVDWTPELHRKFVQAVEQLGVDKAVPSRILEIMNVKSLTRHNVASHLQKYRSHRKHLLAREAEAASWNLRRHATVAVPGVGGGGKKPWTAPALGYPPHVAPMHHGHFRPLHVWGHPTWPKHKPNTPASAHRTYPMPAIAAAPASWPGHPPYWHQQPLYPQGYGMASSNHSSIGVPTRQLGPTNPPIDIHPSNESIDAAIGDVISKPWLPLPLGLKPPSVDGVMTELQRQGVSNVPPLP

## endogenous BPG4 protein
[1]
  binding: binds
[2]
  binding: binds

No constants are given. Whether binding was seen depends on the method and setting. Binding seen in cells or lysates may run through a third protein. Binding can be weak; no strength is given. Tags and fused reporters may be left off the sequences shown.
